# ± gives the standard deviation of the averaged measurements. The list shows a part of the results.
# By UniProt entry, the sequences of proteins in these tests, tags left out. Where a name states a change or a piece, a line headed by the entry shows the natural chain unless it says otherwise.
# UniProt P26583: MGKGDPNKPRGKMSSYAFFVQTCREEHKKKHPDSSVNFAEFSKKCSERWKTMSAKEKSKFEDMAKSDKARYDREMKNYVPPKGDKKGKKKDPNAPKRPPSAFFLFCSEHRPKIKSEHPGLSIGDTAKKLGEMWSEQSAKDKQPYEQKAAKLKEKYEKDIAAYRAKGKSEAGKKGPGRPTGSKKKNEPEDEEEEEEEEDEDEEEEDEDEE
# UniProt P10809, whole entry: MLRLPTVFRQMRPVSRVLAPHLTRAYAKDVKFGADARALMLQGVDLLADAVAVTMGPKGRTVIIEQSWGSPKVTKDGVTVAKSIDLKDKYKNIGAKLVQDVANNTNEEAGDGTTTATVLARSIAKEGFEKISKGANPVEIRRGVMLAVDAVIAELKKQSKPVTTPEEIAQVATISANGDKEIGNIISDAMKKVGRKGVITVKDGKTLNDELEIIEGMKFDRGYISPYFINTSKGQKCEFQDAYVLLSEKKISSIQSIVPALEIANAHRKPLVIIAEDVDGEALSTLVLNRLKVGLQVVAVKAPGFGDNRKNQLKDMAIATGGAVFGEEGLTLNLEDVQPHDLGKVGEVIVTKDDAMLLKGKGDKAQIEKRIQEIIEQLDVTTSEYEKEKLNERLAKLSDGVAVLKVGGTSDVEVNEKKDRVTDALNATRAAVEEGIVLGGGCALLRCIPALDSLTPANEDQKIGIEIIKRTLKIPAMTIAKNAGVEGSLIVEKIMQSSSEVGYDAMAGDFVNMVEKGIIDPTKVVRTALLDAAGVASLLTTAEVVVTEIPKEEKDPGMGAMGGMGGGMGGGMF
# UniProt P19338, whole entry: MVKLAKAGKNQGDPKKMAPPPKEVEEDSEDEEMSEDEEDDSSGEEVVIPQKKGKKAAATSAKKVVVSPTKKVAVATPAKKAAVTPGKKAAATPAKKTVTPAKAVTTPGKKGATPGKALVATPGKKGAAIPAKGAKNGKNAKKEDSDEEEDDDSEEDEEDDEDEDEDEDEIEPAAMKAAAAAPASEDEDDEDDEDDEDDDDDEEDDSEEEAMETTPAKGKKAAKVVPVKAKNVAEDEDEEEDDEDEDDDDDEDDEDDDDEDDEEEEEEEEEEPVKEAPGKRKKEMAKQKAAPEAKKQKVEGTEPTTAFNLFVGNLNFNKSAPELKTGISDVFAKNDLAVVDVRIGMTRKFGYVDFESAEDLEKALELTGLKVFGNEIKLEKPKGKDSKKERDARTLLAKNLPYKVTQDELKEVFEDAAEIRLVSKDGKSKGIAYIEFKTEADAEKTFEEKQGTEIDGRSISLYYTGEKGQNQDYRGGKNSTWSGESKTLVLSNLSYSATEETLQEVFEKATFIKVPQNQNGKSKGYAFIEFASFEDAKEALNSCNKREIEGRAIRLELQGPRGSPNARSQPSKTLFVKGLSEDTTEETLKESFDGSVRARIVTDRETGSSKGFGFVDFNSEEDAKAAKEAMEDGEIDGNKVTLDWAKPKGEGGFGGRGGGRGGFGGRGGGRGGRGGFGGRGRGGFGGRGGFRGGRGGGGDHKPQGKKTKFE
# UniProt P17844: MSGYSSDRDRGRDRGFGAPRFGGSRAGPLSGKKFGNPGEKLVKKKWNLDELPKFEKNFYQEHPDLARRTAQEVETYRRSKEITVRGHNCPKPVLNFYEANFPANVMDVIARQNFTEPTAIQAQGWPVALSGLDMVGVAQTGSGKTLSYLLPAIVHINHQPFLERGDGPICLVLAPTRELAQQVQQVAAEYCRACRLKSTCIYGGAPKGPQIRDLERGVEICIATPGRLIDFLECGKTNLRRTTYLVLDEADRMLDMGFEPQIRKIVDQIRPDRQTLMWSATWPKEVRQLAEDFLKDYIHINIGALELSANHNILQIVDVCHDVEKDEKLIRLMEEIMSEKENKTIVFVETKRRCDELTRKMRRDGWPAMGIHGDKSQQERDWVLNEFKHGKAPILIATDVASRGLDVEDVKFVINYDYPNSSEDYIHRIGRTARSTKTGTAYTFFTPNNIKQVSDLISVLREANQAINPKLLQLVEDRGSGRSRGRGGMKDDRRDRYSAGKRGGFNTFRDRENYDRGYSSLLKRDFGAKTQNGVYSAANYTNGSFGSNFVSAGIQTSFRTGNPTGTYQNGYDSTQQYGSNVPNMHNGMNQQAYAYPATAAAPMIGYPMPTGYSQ
# UniProt P09110: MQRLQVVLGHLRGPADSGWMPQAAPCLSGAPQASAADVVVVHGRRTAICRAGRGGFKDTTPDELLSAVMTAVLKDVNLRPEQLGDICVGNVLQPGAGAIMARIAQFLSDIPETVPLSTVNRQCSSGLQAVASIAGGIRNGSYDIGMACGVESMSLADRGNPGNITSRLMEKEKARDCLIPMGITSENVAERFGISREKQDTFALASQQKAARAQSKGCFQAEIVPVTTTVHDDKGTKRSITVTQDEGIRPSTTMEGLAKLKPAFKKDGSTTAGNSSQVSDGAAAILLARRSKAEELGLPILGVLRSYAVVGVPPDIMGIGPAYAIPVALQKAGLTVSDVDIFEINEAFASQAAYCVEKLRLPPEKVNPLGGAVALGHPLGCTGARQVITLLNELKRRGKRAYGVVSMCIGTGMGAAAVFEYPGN
# UniProt P23443: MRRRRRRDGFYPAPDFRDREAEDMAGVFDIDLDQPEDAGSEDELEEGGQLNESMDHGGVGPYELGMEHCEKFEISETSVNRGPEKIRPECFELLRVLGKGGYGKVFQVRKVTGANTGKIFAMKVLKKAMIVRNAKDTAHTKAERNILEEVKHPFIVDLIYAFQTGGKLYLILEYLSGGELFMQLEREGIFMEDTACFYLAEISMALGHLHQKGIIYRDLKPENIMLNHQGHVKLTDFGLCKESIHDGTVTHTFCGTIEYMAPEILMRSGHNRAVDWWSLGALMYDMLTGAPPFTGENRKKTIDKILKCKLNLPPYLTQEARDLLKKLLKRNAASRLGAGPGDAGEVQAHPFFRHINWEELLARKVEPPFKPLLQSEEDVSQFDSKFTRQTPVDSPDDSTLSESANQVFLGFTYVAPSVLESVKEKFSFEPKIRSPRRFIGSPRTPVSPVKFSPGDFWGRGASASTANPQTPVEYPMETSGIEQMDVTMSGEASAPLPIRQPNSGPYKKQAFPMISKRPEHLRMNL
# UniProt P25490, whole entry: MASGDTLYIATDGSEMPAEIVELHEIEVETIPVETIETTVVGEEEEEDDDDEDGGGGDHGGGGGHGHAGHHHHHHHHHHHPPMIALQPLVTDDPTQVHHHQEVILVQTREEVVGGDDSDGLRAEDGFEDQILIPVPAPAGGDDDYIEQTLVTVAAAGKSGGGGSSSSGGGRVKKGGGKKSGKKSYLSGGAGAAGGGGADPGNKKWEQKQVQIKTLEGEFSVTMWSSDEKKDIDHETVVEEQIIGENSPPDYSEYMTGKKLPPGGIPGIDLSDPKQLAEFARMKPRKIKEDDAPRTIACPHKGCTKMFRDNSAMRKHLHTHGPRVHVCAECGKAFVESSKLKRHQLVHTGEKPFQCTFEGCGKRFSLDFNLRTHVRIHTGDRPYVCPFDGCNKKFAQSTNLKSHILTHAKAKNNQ
# UniProt P09874, whole entry: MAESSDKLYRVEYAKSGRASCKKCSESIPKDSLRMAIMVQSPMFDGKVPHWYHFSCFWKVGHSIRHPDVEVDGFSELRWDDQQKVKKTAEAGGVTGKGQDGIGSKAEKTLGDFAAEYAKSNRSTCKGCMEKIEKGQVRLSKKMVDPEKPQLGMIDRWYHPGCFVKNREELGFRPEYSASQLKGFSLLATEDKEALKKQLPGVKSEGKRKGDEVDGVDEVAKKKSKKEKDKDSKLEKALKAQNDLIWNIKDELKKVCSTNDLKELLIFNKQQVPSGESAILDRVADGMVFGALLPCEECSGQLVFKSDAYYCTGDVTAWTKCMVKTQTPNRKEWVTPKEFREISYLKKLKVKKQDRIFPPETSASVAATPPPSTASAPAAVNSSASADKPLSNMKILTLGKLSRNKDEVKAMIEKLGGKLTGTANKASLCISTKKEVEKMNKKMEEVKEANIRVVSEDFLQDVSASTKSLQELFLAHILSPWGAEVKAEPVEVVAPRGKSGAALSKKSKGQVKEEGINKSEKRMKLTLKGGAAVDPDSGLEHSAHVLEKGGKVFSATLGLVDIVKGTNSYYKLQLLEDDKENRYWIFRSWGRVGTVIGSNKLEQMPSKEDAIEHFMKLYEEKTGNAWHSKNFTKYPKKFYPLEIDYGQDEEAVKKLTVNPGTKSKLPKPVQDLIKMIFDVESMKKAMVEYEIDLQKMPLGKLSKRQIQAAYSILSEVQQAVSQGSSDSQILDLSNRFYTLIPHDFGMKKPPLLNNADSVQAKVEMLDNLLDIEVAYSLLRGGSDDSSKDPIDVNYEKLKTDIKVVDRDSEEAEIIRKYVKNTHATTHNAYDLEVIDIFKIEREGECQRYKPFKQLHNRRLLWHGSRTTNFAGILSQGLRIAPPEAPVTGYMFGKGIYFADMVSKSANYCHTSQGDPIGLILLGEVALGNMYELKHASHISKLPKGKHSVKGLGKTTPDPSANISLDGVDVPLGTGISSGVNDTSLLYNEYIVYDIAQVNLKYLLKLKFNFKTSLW
# UniProt P09488: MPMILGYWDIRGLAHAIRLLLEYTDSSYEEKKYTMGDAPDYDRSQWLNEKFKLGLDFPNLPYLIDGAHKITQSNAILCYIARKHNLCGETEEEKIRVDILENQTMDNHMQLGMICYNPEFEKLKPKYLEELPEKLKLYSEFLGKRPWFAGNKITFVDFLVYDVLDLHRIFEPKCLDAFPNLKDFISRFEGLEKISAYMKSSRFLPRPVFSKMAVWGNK
# UniProt P18065: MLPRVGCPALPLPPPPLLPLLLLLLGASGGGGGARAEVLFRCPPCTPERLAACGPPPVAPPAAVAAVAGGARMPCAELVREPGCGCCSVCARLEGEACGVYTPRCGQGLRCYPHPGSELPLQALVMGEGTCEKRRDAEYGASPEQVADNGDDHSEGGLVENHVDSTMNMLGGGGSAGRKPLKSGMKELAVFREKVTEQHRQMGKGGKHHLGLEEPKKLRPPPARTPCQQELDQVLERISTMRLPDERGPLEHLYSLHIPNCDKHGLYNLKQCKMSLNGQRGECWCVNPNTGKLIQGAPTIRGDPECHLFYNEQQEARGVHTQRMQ
# UniProt P11182, whole entry: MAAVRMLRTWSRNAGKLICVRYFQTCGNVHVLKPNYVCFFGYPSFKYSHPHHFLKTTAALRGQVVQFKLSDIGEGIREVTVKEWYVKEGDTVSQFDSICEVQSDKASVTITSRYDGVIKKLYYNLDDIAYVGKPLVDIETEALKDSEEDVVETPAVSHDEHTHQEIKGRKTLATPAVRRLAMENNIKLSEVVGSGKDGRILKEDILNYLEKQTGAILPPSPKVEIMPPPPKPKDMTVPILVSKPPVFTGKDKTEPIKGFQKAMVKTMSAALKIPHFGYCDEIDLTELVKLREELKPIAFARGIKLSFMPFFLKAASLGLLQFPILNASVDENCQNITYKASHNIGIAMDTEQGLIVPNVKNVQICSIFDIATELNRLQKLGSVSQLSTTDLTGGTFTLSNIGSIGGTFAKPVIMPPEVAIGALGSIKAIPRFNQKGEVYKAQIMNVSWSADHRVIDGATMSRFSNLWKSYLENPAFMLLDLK
# UniProt P12236: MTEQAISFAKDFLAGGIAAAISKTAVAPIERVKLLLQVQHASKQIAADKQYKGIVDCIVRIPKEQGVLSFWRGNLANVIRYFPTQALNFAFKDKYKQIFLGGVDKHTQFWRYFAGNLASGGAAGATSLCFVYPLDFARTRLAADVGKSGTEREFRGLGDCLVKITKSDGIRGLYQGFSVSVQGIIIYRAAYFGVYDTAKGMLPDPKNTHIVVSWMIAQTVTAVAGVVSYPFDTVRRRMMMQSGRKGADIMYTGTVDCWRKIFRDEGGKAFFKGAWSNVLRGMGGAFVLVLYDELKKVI
# UniProt P07384: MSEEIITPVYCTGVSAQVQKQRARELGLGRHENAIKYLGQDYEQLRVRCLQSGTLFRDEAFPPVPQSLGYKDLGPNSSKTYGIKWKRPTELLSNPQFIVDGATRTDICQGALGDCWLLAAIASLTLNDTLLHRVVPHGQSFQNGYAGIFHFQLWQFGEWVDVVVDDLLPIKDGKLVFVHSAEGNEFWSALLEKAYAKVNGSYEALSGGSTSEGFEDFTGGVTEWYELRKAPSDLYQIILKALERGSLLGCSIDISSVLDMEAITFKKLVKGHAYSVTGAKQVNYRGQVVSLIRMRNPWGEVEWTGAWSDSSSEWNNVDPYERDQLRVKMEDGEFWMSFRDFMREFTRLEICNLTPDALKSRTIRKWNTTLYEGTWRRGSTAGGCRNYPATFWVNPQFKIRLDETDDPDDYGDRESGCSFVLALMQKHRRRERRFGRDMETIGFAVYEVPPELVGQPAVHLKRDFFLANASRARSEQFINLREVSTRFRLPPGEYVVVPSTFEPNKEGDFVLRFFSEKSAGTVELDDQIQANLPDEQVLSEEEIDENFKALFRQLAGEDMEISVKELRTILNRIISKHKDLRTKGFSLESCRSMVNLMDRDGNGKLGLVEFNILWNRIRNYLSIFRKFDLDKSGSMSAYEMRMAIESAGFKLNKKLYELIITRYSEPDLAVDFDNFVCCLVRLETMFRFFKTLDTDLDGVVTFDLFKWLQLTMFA
# Compound: Nc1nc2c(ncn2[C@@H]2O[C@H](COP(=O)(O)OP(=O)(O)OP(=O)(O)O)[C@@H](O)[C@H]2O)c(=O)[nH]1 [guanosine triphosphate]
# Assay: NP40-soluble protein abundance relative to vehicle (solubility fold change) (ratio); higher = more soluble protein in presence of GTP
# Procedure, shortened: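 Crude Jurkat lysate, prepared by Dounce homogenisation, was exposed to eight concentrations from 0.1 to 10 mM for 10 min at room temperature and then 3 min at 37 °C. Solubilisation used 0.8% NP40 with benzonase for 60 min at 4 °C, followed by ultracentrifugation and TMT labelling of the supernatant for LC-MS/MS. After vsn normalisation of intensities, each value is the fold change against the detergent-processed vehicle within each replicate, across three independent experiments.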
Target,NP40-soluble protein abundance (concentration: 0.1mM),NP40-soluble protein abundance (concentration: 0.5mM),NP40-soluble protein abundance (concentration: 1mM),NP40-soluble protein abundance (concentration: 2mM),NP40-soluble protein abundance (concentration: 4mM),NP40-soluble protein abundance (concentration: 6mM),NP40-soluble protein abundance (concentration: 8mM),NP40-soluble protein abundance (concentration: 10mM)
HMGB2 (UniProt P26583),0.831 ± 0.065,0.872 ± 0.043,1.08 ± 0.096,1.1 ± 0.047,1.07 ± 0.066,1.13 ± 0.031,1.08 ± 0.043,1.38 ± 0.25
HSPD1 (UniProt P10809),0.944 ± 0.044,0.952 ± 0.047,0.971 ± 0.047,0.914 ± 0.073,0.908 ± 0.064,0.923 ± 0.062,0.93 ± 0.03,0.925 ± 0.055
UniProt P19338 and related entries,0.907 ± 0.1,0.857 ± 0.098,0.91 ± 0.09,0.885 ± 0.12,1.09 ± 0.12,1.23 ± 0.12,1.39 ± 0.08,1.41 ± 0.094
UniProt P25398,0.866 ± 0.011,0.869 ± 0.028,0.965 ± 0.091,0.903 ± 0.12,0.835 ± 0.15,0.805 ± 0.19,0.725 ± 0.12,0.75 ± 0.17
UniProt P17844 and related entries,1.02 ± 0.043,1.04 ± 0.05,1 ± 0.033,1.08 ± 0.043,1.19 ± 0.016,1.23 ± 0.018,1.29 ± 0.036,1.32 ± 0.018
UniProt P09110 and related entries,1 ± 0.062,0.987 ± 0.054,0.949 ± 0.061,0.918 ± 0.039,0.946 ± 0.042,0.903 ± 0.044,0.91 ± 0.076,0.888 ± 0.083
UniProt P23443 and related entries,0.989 ± 0.073,1.01 ± 0.05,0.898 ± 0.049,0.934 ± 0.028,0.908 ± 0.027,0.893 ± 0.035,0.89 ± 0.075,0.871 ± 0.081
YY1 (UniProt P25490),0.999 ± 0.045,1.01 ± 0.045,0.961 ± 0.068,0.967 ± 0.081,0.971 ± 0.081,0.944 ± 0.074,1.01 ± 0.063,1.03 ± 0.081
UniProt P17612,1.07 ± 0.076,1.05 ± 0.065,1.04 ± 0.078,0.989 ± 0.065,1.05 ± 0.12,0.996 ± 0.086,1.03 ± 0.11,0.942 ± 0.024
PARP1 (UniProt P09874),1.02 ± 0.026,1.05 ± 0.034,1.05 ± 0.033,1.15 ± 0.052,1.31 ± 0.069,1.43 ± 0.054,1.47 ± 0.043,1.5 ± 0.028
UniProt P09488 and related entries,0.981 ± 0.044,1 ± 0.047,0.836 ± 0.036,0.827 ± 0.024,0.783 ± 0.053,0.808 ± 0.04,0.746 ± 0.039,0.745 ± 0.081
IGFBP2 (UniProt P18065),0.9 ± 0.042,0.884 ± 0.053,0.983 ± 0.035,0.997 ± 0.043,0.995 ± 0.028,0.934 ± 0.062,1.02 ± 0.054,1.05 ± 0.087
DBT (UniProt P11182),1.09 ± 0.071,1.16 ± 0.13,1.24 ± 0.14,1.39 ± 0.24,1.43 ± 0.24,1.36 ± 0.23,1.37 ± 0.31,1.35 ± 0.29
SLC25A6 (UniProt P12236),1.03 ± 0.16,0.933 ± 0.077,0.966 ± 0.14,0.962 ± 0.11,1.12 ± 0.25,0.97 ± 0.13,1.02 ± 0.17,0.963 ± 0.085
CAPN1 (UniProt P07384),1.04 ± 0.062,1.04 ± 0.05,0.94 ± 0.031,0.949 ± 0.066,0.945 ± 0.059,0.926 ± 0.036,0.91 ± 0.064,0.868 ± 0.094
